This is an account of results in paper PMC5812214.

Protein sequences, listed by entry. Tags and fused reporters are not part of them.
UniProt Q00987: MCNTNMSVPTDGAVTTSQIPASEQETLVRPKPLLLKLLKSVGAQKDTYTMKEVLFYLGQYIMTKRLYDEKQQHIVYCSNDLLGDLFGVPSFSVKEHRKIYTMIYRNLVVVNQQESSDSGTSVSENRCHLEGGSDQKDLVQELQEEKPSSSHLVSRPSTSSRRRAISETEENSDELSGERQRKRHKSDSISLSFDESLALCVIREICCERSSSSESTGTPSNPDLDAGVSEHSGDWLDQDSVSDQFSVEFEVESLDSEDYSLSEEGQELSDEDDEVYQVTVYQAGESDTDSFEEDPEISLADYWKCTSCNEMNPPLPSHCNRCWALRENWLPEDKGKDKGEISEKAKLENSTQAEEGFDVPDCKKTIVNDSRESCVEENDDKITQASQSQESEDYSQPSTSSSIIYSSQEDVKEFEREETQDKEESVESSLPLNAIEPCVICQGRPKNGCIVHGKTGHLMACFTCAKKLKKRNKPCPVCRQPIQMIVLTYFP
UniProt P14649: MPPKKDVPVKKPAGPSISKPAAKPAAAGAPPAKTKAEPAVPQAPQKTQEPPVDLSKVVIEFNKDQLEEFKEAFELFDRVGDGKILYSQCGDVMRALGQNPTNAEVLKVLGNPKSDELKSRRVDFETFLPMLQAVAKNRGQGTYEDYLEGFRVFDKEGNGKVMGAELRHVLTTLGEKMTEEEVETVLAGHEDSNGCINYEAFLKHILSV

This test addresses myc3-MDM2 (pCMV-myc3-HDM2) (human) (UniProt Q00987). As to the kind of experiment: affinity purification with mass spectrometry; lysate of Huh7 cells transfected with myc3-MDM2 (50 mM Tris-HCl pH 7.5, 150 mM NaCl, 1% Triton X-100, 1 mM EDTA), anti-myc affinity gel 4 °C 3 h, washed with TBS plus 0.1% Nonidet P-40, eluted with glycine-HCl pH 2.2, NanoLC-ESI-MS/MS.

No constants are given. Whether binding was seen depends on the method and setting. Binding seen in cells or lysates may run through a third protein. A yes stands for co-enrichment or nearness to the bait. Other partners may have been found.

As for “Myosin Light Chain 6B (MYL6B), endogenous (from UniProt P14649 1-208)”, the binding entry is listed as “binds”.
